Molecules are shown by their SMILES. The list shows a part of the results.

The subject of the assay is T1, CTL2-GFP (C. trachomatis L2/434/Bu, GFP-expressing).
T1 construct: L2/434/Bu, GFP-expressing
The arrangement: species or system HeLa; Intracellular C. trachomatis growth in HeLa cells, bulk GFP fluorescence relative to DMSO. As to conditions: bulk GFP, single well; 28.5 h, 10 µM; inhibitor.
With `COc1cc(CN2CCN(C/C=C/c3ccccc3)CC2)cc(I)c1O` [CBK261882], the “% of control remaining” value came to 90.4175%.
To `Cc1cnc2[nH]c(C(C)C)c(CN(C)C)c2c1` [CBK284758] belongs 143.764%.
To `CC(C)(C)OC(=O)NCCNCc1ccccc1Br` [CBK056693] belongs 169.271%; to `NS(=O)(=O)c1cc(C(=O)OCCNC(=O)c2ccccc2)c(Cl)cc1Cl` [CBK265193], 133.187%.
As to `CN(CC(=O)O)S(=O)(=O)c1ccc(F)c2ccccc12` [CBK268447], the “% of control remaining” value was found to be 139.473%.
As to `O=C(O)CCc1ccc(-c2ccccc2)n1CC1CCCO1` (stereo not drawn) [CBK267955], the “% of control remaining” value was found to be 96.9146%.
As to `CCN1C(=O)CC(C(=O)O)S/C1=N\c1ccc(OC)cc1` (stereo not drawn) [CBK287266], the “% of control remaining” value is on record as 135.696%.
For `Cc1c(C(=O)N2CCC[C@@H]2CO)nnn1Cc1ccc(F)cc1F` [CBK304071] the value was 133.657%; for `CCC(CN1CCOCC1)NC(=O)Cc1coc2cc(C)c(C)cc12` (stereo not drawn) [CBK282811], 120.607%.
For `Cc1ccc(-c2cc(CC3(C(=O)N(C)C)CCCN(C)C3)on2)cc1` (stereo not drawn) [CBK281695] the value was 119.939%; for `CC(=O)c1sc(NC(=O)c2ccc(N3C(=O)CCC3=O)cc2)nc1C` [CBK287334], 132.314%.
As to `CCN(CC)CCn1c(=N)n(CC(=O)c2cccs2)c2ccccc21` [CBK278240B], the “% of control remaining” value came to 100%.
Regarding `CC(NS(=O)(=O)c1cccs1)c1ccccc1` (stereo not drawn) [CBK043601], the “% of control remaining” value was 106.954%.
For `Cc1[nH]c2ccccc2c1Cc1n[nH]c(=S)n1Cc1ccccc1` [CBK266985] the value was 107.712%; for `O=C(NCc1cccs1)c1ccc2nc[nH]c2c1` [CBK153320], 118.972%; for `CC(=O)c1ccc(-c2cc(F)cc3c2OC(CN)C3)s1` (stereo not drawn) [CBK307513], 67.7229%.
For the compound `c1nc(OC2CCOC2)cc(N2CCCC2)n1` (stereo not drawn) [CBK115899], the “% of control remaining” value stood at 128.388%.
On to `CCOC(=O)CN1C(=O)S/C(=C/c2cc(C)n(-c3cc(C)ccn3)c2C)C1=O` [CBK264731], for which the “% of control remaining” value was 117.182%.
To `CC(=O)N1CCC2(CCCC[C@H]3CN(C(C)C)CC[C@@H]3NC(=O)CNC2=O)CC1` [CBK292133] belongs 111.251%; to `O=C(N[C@@H]1CNCCC[C@H]1O)c1ccc(OCCN2CCCC2)cc1` [CBK289070], 123.17%.
As for `C[C@@H](Nc1nc(-c2ccco2)cnc1N)c1ccccc1` [CBK063737], the “% of control remaining” value is given as 195.648%.
Take `Cc1cccc(-c2csc3c(=O)[nH]c(N4CCC(C(=O)NCCc5cccnc5)CC4)nc23)c1` [CBK215627]: the “% of control remaining” value turned out to be 136.827%.
On to `COc1ccc([C@]23CN(C)C[C@H]2CCN(C(=O)Nc2ccc(Cl)c(F)c2)C3)cc1OC` [CBK081140T], for which the “% of control remaining” value was found to be 118.991%.
As to `COc1ccc(OCc2ncc(C(C)(C)C)o2)c(C(C)=O)c1` [CBK305079], the “% of control remaining” value is 105.062%.
To `CC(=O)c1ccc(NC(=O)NC[C@H]2C[C@@H]3CC[N@]2C[C@@H]3CN2CCCCC2)cc1` [CBK288766] belongs 125.903%; to `COCC1CCCN1C(=O)c1cnn2c(C)c(Cc3ccccc3)c(C)nc12` (stereo not drawn) [CBK162213], 120.617%; to `Cc1cccc(OCCNC(=O)CN2CCCC2Cn2cncn2)c1` (stereo not drawn) [CBK305345], 97.7822%.
For `CS(=O)(=O)c1sc(C(=O)NC(=S)Nc2cccc(C(F)(F)F)c2)c2c1C=CCC2` [CBK005654] the value was 105.269%.
For `CCCn1cc(NC(=O)C2(c3ccccc3)CCOCC2)ccc1=O` [CBK304905], the “% of control remaining” value came out at 84.0195%.
For `CCn1cc(NC(=O)CC2CCN(Cc3cccc(C(F)(F)F)c3)CC2)cn1` [CBK286118] the value was 100.806%; for `O=C(O)C[C@]1(C(=O)NC2CCCCCC2)CC(/C=C/c2ccccc2)=NO1` [CBK286732], 136.6%; for `Cc1cccc(CCNC(=O)N2CCN(Cc3ccccn3)CC2)c1` [CBK304057], 102.802%.
As for `Cc1cccc(-c2csc3c(=O)[nH]c(N4CCC(C(=O)NCc5ccncc5)CC4)nc23)c1` [CBK215625], the “% of control remaining” value amounted to 110.283%.
To `Cc1c(CC(=O)O)c2c(n1Cc1ccc(F)cc1)CCCC2=O` [CBK287078] belongs 109.129%; to `O=C(O)C[C@@H]1CCN(C(=O)C2CCCCC2)C[C@@H]1CCN1CCCCC1` [CBK288781], 136.044%.
For `COc1ccc(OC)c(C(C)NC(=O)C2CCN(Cc3cccc(C(F)(F)F)c3)CC2)c1` (stereo not drawn) [CBK148764], the “% of control remaining” value was 167.565%.
To `COC(=O)[C@@H](C)NC(=O)[C@@H]1CN(C(=O)NC(C)C)CCN1C(=O)C1CCCCC1` [CBK289622] belongs 123.246%; to `CCOc1cccc(-c2cn3ccnc3c(Nc3ccc(Cl)cc3)n2)c1` [CBK066505], 136.598%; to `CC(Cn1cncn1)C(=O)N1CCCCC1CCc1ccccc1` (stereo not drawn) [CBK282265], 108.104%.

The values are drawn from PMC12040169 (PLOS Biology, 2025).
